# Data from PubChem BioAssay AID1259415 (National Center for Advancing Translational Sciences (NCATS), 2018).
# The whole screen tested about 410,000 compounds, of which about 18,000 (4.4%) were called active. The shares of active, inactive and inconclusive entries below differ from those in the screen. No stated cut-off is given here; in the data, active means activity change below about -60%; inconclusive means no clear call, values can overlap the other calls; inactive means above about -39%.
# Test: qHTS Assay for inhibitors of the human cytomegalovirus (HCMV)
# Details: HFF cells, HCMV-luciferase reporter, 72 h; at 57.5 µM; stronger effect = lower value
# How it was run: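 Two compound doses tested in HFFs infected with HCMV-luciferase, MOI 1 PFU/cell, 72 h at 37C. Lysate luminescence read with OneGlo; data normalized against buffer-only and 10uM Salinomycin inhibitor controls.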
# On the % scale 0 is the no-effect control and ±100 the full control effect.
row,SMILES,"activity change, negative = inhibition"
1,COc1ccc(CC(=O)Nc2c(C(=O)N3CCN(c4ncccn4)CC3)oc3ccccc23)cc1,inconclusive: -44.3%
2,O=C(N/N=C/c1ccc(-c2cccc([N+](=O)[O-])c2)o1)c1ccc([N+](=O)[O-])cc1,inconclusive: -57.9%
3,S=C(S)OC1CC2CC1C1CCCC21 (configuration not stated),active: -60.3%
4,Cc1ccc(-c2nnc(Nc3ccc(O)cc3)c3ccccc23)cc1S(=O)(=O)N1CCN(C)CC1,active: -65.6%
5,CC(=O)N1CCN(c2ccc(NC(=O)c3ccc(Br)o3)cc2Cl)CC1,inactive: -31.4%
6,O=C(NCc1cccs1)C1C(=O)Nc2ccccc2C(=O)N1Cc1ccccc1 (configuration not stated),inconclusive: -51.9%
7,CCCNC(=S)Nc1ccc(Cl)cc1Cl,inconclusive: -43.5%
8,O=C1[C@@H]2Cc3c([nH]c4ccccc34)CN2C(=O)CN1CCO,inconclusive: -40.1%
9,Cc1cccc(NS(=O)(=O)c2cc3c4c(c2)CCC(=O)N4CCC3)c1,inconclusive: -42.3%
10,COc1cc2c3cc1Oc1cc(ccc1O)C[C@@H]1c4c(cc(OC)c(O)c4Oc4ccc(cc4)C[C@H]3N(C)CC2)CCN1C,inactive: -9.75%
11,CCC(C)NC(=O)CSc1nc2ccccc2c(=O)n1Cc1ccc(OC)cc1 (configuration not stated),inactive: -28.9%
12,COc1cc(NC(=O)NCc2ccco2)ccc1-c1ccc(NC(=O)NCc2ccco2)cc1OC,active: -66.7%
13,O=C(CNC(=O)c1ccccc1)N/N=C/c1cccs1,inconclusive: -49.6%
14,Cc1ccc(-c2nn(-c3ccccc3)cc2/C=C/C(=O)Nc2cccc(S(N)(=O)=O)c2)cc1,inconclusive: -47.4%
15,c1ccc(CN2CCC(N3CCN(Cc4ccc5c(c4)OCO5)CC3)CC2)cc1,inconclusive: -56.8%
16,CC1CCN(CCc2nc3cc(NC(=O)COc4ccc([N+](=O)[O-])cc4)ccc3n2C)CC1,inconclusive: -49.6%
17,Cc1nc2ccccc2c2oc(C(=O)NCc3ccccn3)cc12,inconclusive: -42.5%
18,CCOc1ccccc1NC(=O)c1cccc(NC(=O)C(C)C)c1,inconclusive: -49.3%
19,CCN(CC)c1ccc2oc(=O)c(C)nc2c1,active: -70.4%

row,SMILES,"activity change, negative = inhibition"
1,CC(=O)Nc1ccc(N)cc1,inactive: 7.57%
2,CC(C)n1c(O)c(/C=C2\C=NN=C2c2ccccc2)sc1=S,inconclusive: -43.6%
3,O=C(NCc1n[nH]c(=S)n1-c1ccc(Br)cc1)c1ccc(S(=O)(=O)N2CCCCC2)cc1,inconclusive: -52.9%
4,Cc1ccc(S(=O)(=O)N(Cc2cc3cccc(C)c3[nH]c2=O)c2ccccc2)cc1,inconclusive: -56.7%
5,C=C(C)COc1ccc(-c2ncncc2-c2ccc(Cl)cc2)c(O)c1,inconclusive: -49.5%
6,COC(=O)c1ccc(OCC(O)CN2CCN(C(=O)c3ccco3)CC2)c(OC)c1 (configuration not stated),inactive: 28.1%
7,Nc1c(-c2nc(-c3cccs3)no2)nnn1-c1ccccc1Cl,inactive: 23.5%
8,Cc1ccc(Cl)cc1N(C)C(=O)Cn1nc(Cc2cccnc2)c2ccccc2c1=O,active: -61.7%
9,COc1ccccc1C(=O)CSc1cccc[n+]1[O-],inconclusive: -44.9%
10,Cc1cc(C)cc(OC(C)C(=O)Nc2nonc2-c2ccc(Br)cc2)c1 (configuration not stated),active: -62%
11,OCC1(CCOc2ccccc2)CCN(Cc2nc3ccc(F)cc3[nH]2)CC1,active: -61.8%
12,Cc1ccc(Cn2ccc(NC(=O)c3cc(-c4ccccc4)on3)n2)cc1,inconclusive: -47.8%
13,Nc1ccc(OCc2ccco2)cc1,inactive: -12.4%
14,COC(=O)c1cc(NC(=O)CN(c2cccc(OC)c2)S(=O)(=O)c2ccccc2)ccc1Cl,inconclusive: -55.7%
15,Cn1cnc(S(=O)(=O)NC2CCN(Cc3ccccc3)CC2)c1,inconclusive: -44.3%
16,COc1ccc(NC(=S)N2CCN(C/C=C/c3ccccc3)CC2)cc1OC,inconclusive: -47%
17,Clc1ccccc1CONc1ncnc2nonc12,inconclusive: -44.3%
18,COC(=O)c1sccc1NC(=S)Nc1ccc(OC)cc1,inconclusive: -46%
19,Cc1[nH]n(-c2ccccc2)c(=O)c1C=Nc1cccc2cccnc12,active: -63%

# Looked up above.
# For activity change, negative = inhibition, `COC(=O)c1ccc(OCC(O)CN2CCN(C(=O)c3ccco3)CC2)c(OC)c1` (configuration not stated) has inactive: 28.1%
# For activity change, negative = inhibition, `Cc1ccc(Cn2ccc(NC(=O)c3cc(-c4ccccc4)on3)n2)cc1` has inconclusive: -47.8%
# For activity change, negative = inhibition, `CC(C)n1c(O)c(/C=C2\C=NN=C2c2ccccc2)sc1=S` has inconclusive: -43.6%

# Remaining list, next part.

row,SMILES,"activity change, negative = inhibition"
1,Cc1ccccc1CNC(=O)c1ccc(CSCc2ccccc2)cc1,inactive: -16.9%
2,NNC(=O)c1sccc1OCc1ccc(Cl)cc1Cl,inconclusive: -55.1%
3,COc1cccc(C2CC(c3cccc(NS(C)(=O)=O)c3)=NN2C(=O)c2ccccc2)c1OC (configuration not stated),active: -73.2%
4,N#C/C(=C\c1cn(Cc2cccc(F)c2)c2ccccc12)C(=O)NCc1ccco1,inconclusive: -49.8%
5,O=C(Nc1ccc(S(=O)(=O)N2CCCC2)cc1)c1cncc(Br)c1,inactive: -26%
7,COc1ccc(NC(=O)N2c3ccccc3C(C)=CC2(C)C)cc1,inconclusive: -41%
8,CCS(=O)(=O)N1CCc2cc(C(=O)Nc3ccc(OC)c(Cl)c3)ccc21,inactive: -1.84%
9,CC1(C)Cc2ccccc2-c2nnc(SCC(=O)Nc3ccc4c(c3)OCO4)n21,inconclusive: -56.7%
10,COc1ccccc1N1CCN(C2CCCC(C)C2)CC1 (configuration not stated),inconclusive: -58%
11,C=CCN=C1NC(c2ccc(C(F)(F)F)cc2)C(C(=O)OC)=C(C)N1C (configuration not stated),inconclusive: -52.3%
12,CCn1c(=O)cc(OCC(=O)NCCC(C)C)c2ccccc21,inactive: 39%
13,CC(=O)c1cc(-c2ccccc2)n(CCC(=O)NC2CCCC2)c1C,inactive: -24.8%
14,CCCCN(CCCC)S(=O)(=O)c1ccc(NC(=O)c2cccs2)cc1,inconclusive: -49.2%
15,C/C(=N\Nc1nnc2c3ccccc3n(C)c2n1)c1ccc(C)o1,inactive: 35.7%
16,COc1ccc(C(C)=O)cc1CSc1ncccn1,inconclusive: -52.6%
17,CCC1(C)Cc2ccccc2-c2nc3n(c(=O)c21)CCS3 (configuration not stated),inconclusive: -45.9%
18,COc1ccc(NC(=O)c2cccc(S(=O)(=O)N3CCCCCC3)c2)cc1,active: -87.6%
19,O=S1(=O)CCOC[C@H](c2ccccc2)N1Cc1cccc(Cl)c1,active: -79.8%
